Laboratory results published in paper PMC2527822.
No constants are given. Whether binding was seen depends on the method and setting. Binding seen in cells or lysates may run through a third protein. Some results given as binding are weak or reduced against the parent protein; the word gives no strength.

Sequences of proteins named here, by UniProt entry; tags and fusion partners are left off. A change or cut given only in a name is not applied to a line headed by its entry. A line that says so, or that is headed by a name, gives the form on record, which may keep a tag or linker.
UniProt P03372: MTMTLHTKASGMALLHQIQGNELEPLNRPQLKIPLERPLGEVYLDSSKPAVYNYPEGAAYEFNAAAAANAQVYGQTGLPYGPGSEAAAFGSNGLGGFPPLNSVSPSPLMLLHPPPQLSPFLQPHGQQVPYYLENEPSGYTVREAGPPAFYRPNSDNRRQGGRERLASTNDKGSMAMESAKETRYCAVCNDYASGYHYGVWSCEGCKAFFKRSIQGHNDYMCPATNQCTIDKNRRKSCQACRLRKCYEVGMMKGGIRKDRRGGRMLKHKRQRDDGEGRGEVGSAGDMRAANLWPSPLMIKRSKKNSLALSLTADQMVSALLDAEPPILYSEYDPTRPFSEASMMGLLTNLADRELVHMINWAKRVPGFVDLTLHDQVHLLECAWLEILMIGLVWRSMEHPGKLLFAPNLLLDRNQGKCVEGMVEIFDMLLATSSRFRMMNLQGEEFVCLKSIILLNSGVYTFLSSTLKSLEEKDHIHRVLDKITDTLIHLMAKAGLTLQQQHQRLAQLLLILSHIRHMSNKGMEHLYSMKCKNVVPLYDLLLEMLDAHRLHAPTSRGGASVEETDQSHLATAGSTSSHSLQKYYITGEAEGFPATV
endogenous MI-ER1α of MCF-7 cells (human (endogenous in MCF-7)) (Q8N108-16, form named): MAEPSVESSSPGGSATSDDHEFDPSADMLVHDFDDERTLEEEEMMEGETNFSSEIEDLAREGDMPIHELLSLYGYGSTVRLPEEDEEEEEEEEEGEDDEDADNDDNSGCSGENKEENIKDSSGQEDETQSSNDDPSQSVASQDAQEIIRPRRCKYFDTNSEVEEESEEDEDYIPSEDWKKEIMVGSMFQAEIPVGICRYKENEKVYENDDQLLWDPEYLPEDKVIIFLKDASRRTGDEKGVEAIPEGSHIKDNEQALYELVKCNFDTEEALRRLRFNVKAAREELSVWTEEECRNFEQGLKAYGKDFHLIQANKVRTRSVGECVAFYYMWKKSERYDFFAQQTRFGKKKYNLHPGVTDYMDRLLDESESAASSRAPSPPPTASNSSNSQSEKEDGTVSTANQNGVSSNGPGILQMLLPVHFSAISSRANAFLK

Columns and labels:
[1] = target: oestrogen receptor-α (hERα), expressed from pcDNA3-herα (human) (UniProt P03372); assay: co-IP; HEK293 cells co-transfected with pcDNA3-erα and pCS3+MT-mier1α; treated with vehicle or 10 nM E2 for 3 h before extraction; extracts immunoprecipitated with anti-ERα, Western blot stained for MI-ER1α
[2] = target: endogenous MI-ER1α of MCF-7 cells (human (endogenous in MCF-7)) (UniProt Q8N108); assay: co-IP; non-transfected MCF-7 cells, endogenous proteins; treated with vehicle or 10 nM E2; extracts immunoprecipitated with anti-MI-ER1α (pre-immune as control), Western blot with anti-ERα

Row | binding [1] | binding [2] | Substance
1 | binds |  | MI-ER1α (mesoderm induction early response 1, alpha isoform), expressed from pCS3+MT-hmi-er1α (from UniProt Q8N108-16 1-433)
2 |  | binds | endogenous oestrogen receptor-α (ERα) of MCF-7 cells (from UniProt P03372 1-595)
